Results deposited as PubChem BioAssay AID652272 (Drosophila RNAi Screening Center, 2013)

- Test: 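Genes whose knock-down decreases or increases Hedgehog reporter output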 (primary screen)
- System: Drosophila clone 8 (Cl8) cells
- Reagents: long dsRNA against Drosophila genes
- Detection: 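Firefly light from a Hedgehog-responsive ptc promoter reporter and Renilla reference light, both read on a plate reader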
- Reading the numbers: firefly Hh reporter signal: higher = more ptc reporter light; Renilla reference signal: higher = more Renilla control light
- Active means: 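Hit when the z-score averaged over two replicates is under -2 or over +3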
- Meaning of the calls: active = hit: reporter lowered or raised; inactive = not a hit
The screen tested about 21,000 reagents; shown is an unselected part of those that have a named target and a result. In the full data, 503 (2.4%) were called active. 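Raw plate light values, not normalised; calls rest on replicate z-scores that were not deposited; hits include reporter decreases as well as increases.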 Reagents against one gene are numbered here. The record does not give: the amount of reagent, the time to read-out.

Which result is listed for gskt (GeneID 318552)?
firefly Hh reporter signal, replicate 1: 4.80e5; firefly Hh reporter signal, replicate 2: 2.09e5; Renilla reference signal, replicate 1: 25552; Renilla reference signal, replicate 2: 3824; call: inactive

How did the screen score CG8607 (GeneID 38805)?
firefly Hh reporter signal, replicate 1: 54323; firefly Hh reporter signal, replicate 2: 42941; Renilla reference signal, replicate 1: 6413; Renilla reference signal, replicate 2: 3392; call: inactive

For CG31869 (GeneID 34490) #1, how do the results read?
firefly Hh reporter signal, replicate 1: 1.14e5; firefly Hh reporter signal, replicate 2: 69908; Renilla reference signal, replicate 1: 3277; Renilla reference signal, replicate 2: 7106; call: inactive

With CG31869 (GeneID 34490) #2, how do the results read?
firefly Hh reporter signal, replicate 1: 1.41e5; firefly Hh reporter signal, replicate 2: 65350; Renilla reference signal, replicate 1: 3708; Renilla reference signal, replicate 2: 6661; call: inactive

For PAPLA1 (GeneID 34109) #1, what does the deposit list?
firefly Hh reporter signal, replicate 1: 1.01e5; firefly Hh reporter signal, replicate 2: 69604; Renilla reference signal, replicate 1: 5256; Renilla reference signal, replicate 2: 3072; call: inactive

What is on record for PAPLA1 (GeneID 34109) #2?
firefly Hh reporter signal, replicate 1: 63217; firefly Hh reporter signal, replicate 2: 46662; Renilla reference signal, replicate 1: 2247; Renilla reference signal, replicate 2: 4360; call: inactive

How did the screen score fid (GeneID 43148) #1?
firefly Hh reporter signal, replicate 1: 4.16e5; firefly Hh reporter signal, replicate 2: 82550; Renilla reference signal, replicate 1: 23265; Renilla reference signal, replicate 2: 6225; call: inactive

What did the screen give for fid (GeneID 43148) #2?
firefly Hh reporter signal, replicate 1: 5.04e5; firefly Hh reporter signal, replicate 2: 1.10e5; Renilla reference signal, replicate 1: 27378; Renilla reference signal, replicate 2: 10123; call: inactive

Taken from above:
Entry for PAPLA1 (GeneID 34109) #1 under “firefly Hh reporter signal, replicate 2”: 69604
Value for PAPLA1 (GeneID 34109) #2 under “firefly Hh reporter signal, replicate 1”: 63217
fid (GeneID 43148) #2, firefly Hh reporter signal, replicate 1 = 5.04e5

More reagents follow.
With CG11601 (GeneID 33197), what does the deposit list?
firefly Hh reporter signal, replicate 1: 1.02e5; firefly Hh reporter signal, replicate 2: 60112; Renilla reference signal, replicate 1: 2320; Renilla reference signal, replicate 2: 1362; call: inactive

For Cpr76Bb (GeneID 40121), how do the results read?
firefly Hh reporter signal, replicate 1: 1.66e5; firefly Hh reporter signal, replicate 2: 1.53e5; Renilla reference signal, replicate 1: 5489; Renilla reference signal, replicate 2: 4315; call: inactive

Which result is listed for E(spl)m6-BFM (GeneID 43159)?
firefly Hh reporter signal, replicate 1: 5.68e5; firefly Hh reporter signal, replicate 2: 1.12e5; Renilla reference signal, replicate 1: 29735; Renilla reference signal, replicate 2: 3514; call: inactive

With pkaap (GeneID 34957), what was measured?
firefly Hh reporter signal, replicate 1: 86796; firefly Hh reporter signal, replicate 2: 81476; Renilla reference signal, replicate 1: 2338; Renilla reference signal, replicate 2: 6499; call: inactive

Which result is listed for Psn (GeneID 40260)?
firefly Hh reporter signal, replicate 1: 89332; firefly Hh reporter signal, replicate 2: 1.01e5; Renilla reference signal, replicate 1: 3569; Renilla reference signal, replicate 2: 2709; call: inactive

For inaF-A (GeneID 5740676), what does the deposit list?
firefly Hh reporter signal, replicate 1: 45936; firefly Hh reporter signal, replicate 2: 1.83e5; Renilla reference signal, replicate 1: 1078; Renilla reference signal, replicate 2: 7280; call: inactive

Which result is listed for Tsp39D (GeneID 35405)?
firefly Hh reporter signal, replicate 1: 1.02e5; firefly Hh reporter signal, replicate 2: 68787; Renilla reference signal, replicate 1: 2523; Renilla reference signal, replicate 2: 6432; call: inactive

Which result is listed for peng (GeneID 33112)?
firefly Hh reporter signal, replicate 1: 69688; firefly Hh reporter signal, replicate 2: 2.12e5; Renilla reference signal, replicate 1: 1067; Renilla reference signal, replicate 2: 9792; call: inactive

How did the screen score Gr89a (GeneID 42007)?
firefly Hh reporter signal, replicate 1: 81497; firefly Hh reporter signal, replicate 2: 71125; Renilla reference signal, replicate 1: 2016; Renilla reference signal, replicate 2: 423; call: inactive

For hbt (GeneID 34738) #1, how do the results read?
firefly Hh reporter signal, replicate 1: 5.00e5; firefly Hh reporter signal, replicate 2: 4.00e5; Renilla reference signal, replicate 1: 25209; Renilla reference signal, replicate 2: 13192; call: inactive

Which result is listed for hbt (GeneID 34738) #2?
firefly Hh reporter signal, replicate 1: 90637; firefly Hh reporter signal, replicate 2: 60728; Renilla reference signal, replicate 1: 2327; Renilla reference signal, replicate 2: 5788; call: inactive

For Ets21C (GeneID 33229), how do the results read?
firefly Hh reporter signal, replicate 1: 1.21e5; firefly Hh reporter signal, replicate 2: 1.33e5; Renilla reference signal, replicate 1: 2346; Renilla reference signal, replicate 2: 2934; call: inactive

How did the screen score CYLD (GeneID 34380)?
firefly Hh reporter signal, replicate 1: 1.10e5; firefly Hh reporter signal, replicate 2: 34795; Renilla reference signal, replicate 1: 2698; Renilla reference signal, replicate 2: 3965; call: inactive
